Results are given in words; binding and its absence hold for the method and conditions named. Binding can be weak; no strength is given.
Assays:
[1] = target: bovine ADAM10 disintegrin+cysteine-rich domain construct (D+C, residues 455-646) (bovine) (UniProt Q10741); test: ELISA on immobilised antigen
[2] = target: human ADAM10 D+C (455-650) (human) (UniProt O14672); test: ELISA on immobilised antigen
[3] = target: bovine ADAM10 disintegrin+cysteine-rich domain construct (D+C, residues 455-646) (bovine) (UniProt Q10741); test: pull-down with protein A Sepharose bead-bound IgG, SDS-PAGE
[4] = target: human ADAM10 D+C (455-650) (human) (UniProt O14672); test: ELISA, 1H5 IgG titrated on immobilised human ADAM10 D+C, absorbance 450 nm
[5] = target: bovine ADAM10 disintegrin+cysteine-rich domain construct (D+C, residues 455-646) (bovine) (UniProt Q10741); test: ELISA, 1H5 IgG titrated on immobilised bovine ADAM10 D+C, absorbance 450 nm

Sequences of proteins named here, by UniProt entry; tags and fusion partners are left off. A change or cut given only in a name is not applied to a line headed by its entry.
UniProt Q10741: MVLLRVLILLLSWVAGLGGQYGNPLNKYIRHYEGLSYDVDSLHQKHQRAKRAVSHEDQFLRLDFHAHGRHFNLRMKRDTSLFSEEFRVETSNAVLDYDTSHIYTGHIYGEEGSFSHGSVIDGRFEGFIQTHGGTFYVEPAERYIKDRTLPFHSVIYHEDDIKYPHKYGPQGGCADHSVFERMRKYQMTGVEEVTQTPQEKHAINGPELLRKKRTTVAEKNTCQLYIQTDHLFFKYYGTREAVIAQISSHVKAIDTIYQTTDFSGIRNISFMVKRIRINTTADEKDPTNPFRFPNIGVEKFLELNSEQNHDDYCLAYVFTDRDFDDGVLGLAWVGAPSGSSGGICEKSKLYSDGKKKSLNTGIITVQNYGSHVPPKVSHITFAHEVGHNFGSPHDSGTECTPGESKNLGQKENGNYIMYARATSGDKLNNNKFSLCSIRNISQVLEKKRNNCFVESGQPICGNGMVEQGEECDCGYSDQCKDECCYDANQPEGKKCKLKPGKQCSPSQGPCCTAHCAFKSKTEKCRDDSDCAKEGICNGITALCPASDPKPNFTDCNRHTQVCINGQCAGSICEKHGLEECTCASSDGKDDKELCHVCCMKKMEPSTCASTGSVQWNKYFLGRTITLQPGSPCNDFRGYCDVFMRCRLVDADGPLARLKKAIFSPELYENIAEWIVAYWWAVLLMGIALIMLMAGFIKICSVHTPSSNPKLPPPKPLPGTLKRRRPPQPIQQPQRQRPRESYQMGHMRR
UniProt O14672: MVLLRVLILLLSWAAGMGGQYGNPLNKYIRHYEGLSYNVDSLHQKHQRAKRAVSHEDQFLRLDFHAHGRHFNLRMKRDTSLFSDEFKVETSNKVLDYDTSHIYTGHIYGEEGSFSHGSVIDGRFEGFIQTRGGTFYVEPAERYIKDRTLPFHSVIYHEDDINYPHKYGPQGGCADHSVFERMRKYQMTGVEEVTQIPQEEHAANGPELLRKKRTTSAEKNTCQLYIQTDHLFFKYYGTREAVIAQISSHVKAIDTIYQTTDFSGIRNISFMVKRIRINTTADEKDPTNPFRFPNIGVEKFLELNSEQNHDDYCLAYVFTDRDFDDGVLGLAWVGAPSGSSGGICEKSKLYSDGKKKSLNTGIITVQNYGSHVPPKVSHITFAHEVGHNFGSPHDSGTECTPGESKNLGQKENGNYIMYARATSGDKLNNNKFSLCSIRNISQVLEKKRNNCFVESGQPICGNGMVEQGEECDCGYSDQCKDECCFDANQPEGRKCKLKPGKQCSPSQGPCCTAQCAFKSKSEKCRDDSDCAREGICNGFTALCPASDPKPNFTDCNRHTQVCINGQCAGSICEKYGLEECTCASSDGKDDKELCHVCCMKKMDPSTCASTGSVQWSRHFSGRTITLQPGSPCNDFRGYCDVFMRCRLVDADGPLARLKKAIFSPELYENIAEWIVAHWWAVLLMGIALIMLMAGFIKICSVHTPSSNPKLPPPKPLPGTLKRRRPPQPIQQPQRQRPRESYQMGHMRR

Measured: binding

B1: 1H5 IgG (fully human anti-ADAM10 monoclonal antibody) (antibody, V domains shown)
VH: QVQLVESGGGLVKPGGSLRLSCAASGFTFSDYYMSWIRQAPGKGLEWVSYISSSGSTIYYADSVKGRFTISRDNAKNSLYLQMNSLRAEDTAVYYCARDFYDSKIFDYWGQGTLVTVSS
VL: DIQMTQSPSSLSASVGDRVTITCRASQSISSYLNWYQQKPGKAPKLLIYAASSLQSGVPSRFSGSGSGTDFTLTISSLQPEDVGVYYCMEGLKTPFTFGPGTKLEIKR
binds: [1] | [2] | [3] | [4] | [5]

Source: patent US20260167677A1, “ANTI-ADAM10 ANTIBODIES AND USES IN TREATMENT OF CANCER” (Memorial Sloan Kettering Cancer Center, priority 2022, published 2026)
